Measured values as given in publication PMC8633288.
For some of these results: Negatives hold for the conditions tested. For some of these results: Construct, isoform or probe ends are uncertain for at least one entry. For some of these results: A weaker result is weaker than the reference pair of the same experiment.

Legend:
[1] = system: MBP-STM3 (Solanum lycopersicum); assay: EMSA; details: poly(dI-dC); LightShift EMSA kit, 20 uL: 0.5 uL protein, 4 uL biotin probe (100 pmol), 2 uL binding buffer, 1 uL poly(dI-dC); pH and temperature not stated; recombinant protein; protein details: N-terminal MBP, 6xHis (MBP-pMCSG7); label: 5' biotin on both strands
MBP = MBP (UniProt P0AEX9); assay: EMSA; details: poly(dI-dC); LightShift EMSA kit, 20 uL: 0.5 uL protein, 4 uL biotin probe (100 pmol), 2 uL binding buffer, 1 uL poly(dI-dC); pH and temperature not stated; recombinant protein; protein details: 6xHis; label: 5' biotin on both strands
[2] = system: MBP-STM3 (Solanum lycopersicum); assay: competition with a labelled probe; details: excess unlabeled competitor against labeled N1; LightShift EMSA kit, 20 uL: 0.5 uL protein, 4 uL biotin probe (100 pmol), 2 uL binding buffer, 1 uL poly(dI-dC); pH and temperature not stated; recombinant protein; protein details: N-terminal MBP, 6xHis (MBP-pMCSG7)

| Sequence | binding result [1] | binding result (MBP) | binding result [2] |
| --- | --- | --- | --- |
| GATACCAAACAGAGAAACACTACTCCACACCCTTCTTTTTTTTTCTTCC (double strand) [FUL1 promoter S1 probe (49 bp)] | binds | no binding |  |
| GATACCAAACAGAGAAACACTACTCCACACCCTTCTTTTTTTTTCTTCC (double strand) [FUL1 promoter S1 unlabeled competitor] |  |  | binds |
| GATTAAAAAAAAAAAAAAACTACTCCACATTTTTTTTTTTTTTTCTTCC (double strand) [muFUL1 mutated probe] | binds more weakly |  |  |
